Laboratory results as given in patent publication US20250084388A1.
Results are given in words; binding and its absence hold for the method and conditions named. Some results given as binding are weak or reduced against the parent protein; the word gives no strength.

The chains behind the UniProt entries cited, without tags or fusion partners. Where a name states a change or a piece, a line headed by the entry shows the natural chain unless it says otherwise. Residues count along the entry.
UniProt P22004, residues 382-513: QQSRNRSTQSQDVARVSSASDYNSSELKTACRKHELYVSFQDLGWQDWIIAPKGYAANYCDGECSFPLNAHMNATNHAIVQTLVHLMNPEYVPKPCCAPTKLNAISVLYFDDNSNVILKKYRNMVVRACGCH
UniProt P36896: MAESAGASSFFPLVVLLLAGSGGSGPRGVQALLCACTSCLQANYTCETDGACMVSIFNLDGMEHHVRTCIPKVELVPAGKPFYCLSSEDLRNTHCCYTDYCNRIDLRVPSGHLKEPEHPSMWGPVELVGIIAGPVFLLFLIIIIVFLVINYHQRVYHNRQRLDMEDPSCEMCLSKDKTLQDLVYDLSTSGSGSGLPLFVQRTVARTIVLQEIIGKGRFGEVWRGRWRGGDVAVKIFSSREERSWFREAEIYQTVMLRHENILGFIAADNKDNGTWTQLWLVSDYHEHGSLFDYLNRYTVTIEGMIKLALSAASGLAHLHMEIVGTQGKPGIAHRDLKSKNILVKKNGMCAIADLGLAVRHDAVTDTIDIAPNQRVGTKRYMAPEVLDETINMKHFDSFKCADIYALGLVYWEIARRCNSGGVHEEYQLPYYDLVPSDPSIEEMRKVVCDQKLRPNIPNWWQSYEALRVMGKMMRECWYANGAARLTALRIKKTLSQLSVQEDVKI

How the values were obtained:
GDF11 = biological target: T1, GDF11 (UniProt O95390); assay: SPR (retold in Example 3; the ligands are those of the 58th table)
T1 sequence (looked up): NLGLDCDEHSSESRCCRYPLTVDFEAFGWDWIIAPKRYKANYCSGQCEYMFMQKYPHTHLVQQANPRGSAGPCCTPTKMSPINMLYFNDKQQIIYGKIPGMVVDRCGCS

BMP6 [1] = biological target: BMP6 (UniProt P22004); assay: Biacore SPR
GDF3 [2] = biological target: T2, GDF3 (UniProt Q9NR23); assay: Biacore SPR
T2 sequence (looked up): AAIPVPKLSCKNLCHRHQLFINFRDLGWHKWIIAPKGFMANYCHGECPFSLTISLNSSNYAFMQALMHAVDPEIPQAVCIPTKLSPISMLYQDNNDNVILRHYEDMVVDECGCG

BMP6 [3] = biological target: BMP6 (UniProt P22004); assay: Biacore SPR (legend of FIG. 4)
GDF3 [4] = biological target: T2, GDF3; assay: Biacore SPR (legend of FIG. 4)

Row | binding (GDF11) | binding (BMP6 [1]) | binding (GDF3 [2]) | binding (BMP6 [3]) | binding (GDF3 [4]) | Substance
1 | binds | – | – | – | – | ALK4-Fc homodimer (from UniProt P36896 24-126) (Fc fusion)
2 | – | binds | binds | binds | binds | ALK4-Fc:ActRIIB-Fc heterodimer (from UniProt P36896 24-126; Q13705 20-134) (Fc fusion)
